The record followed here is PMC5814100.

No constants are given. Whether binding was seen depends on the method and setting. Binding calls can cover weak binding; strength is not graded here. For some of these results: In cells and extracts the contact can be indirect. For some of these results: Sequences can lack the tags named with a protein.

The target in test [1] is T1, GST-SAP (Arabidopsis thaliana) (UniProt Q9FKH1).
T1 sequence: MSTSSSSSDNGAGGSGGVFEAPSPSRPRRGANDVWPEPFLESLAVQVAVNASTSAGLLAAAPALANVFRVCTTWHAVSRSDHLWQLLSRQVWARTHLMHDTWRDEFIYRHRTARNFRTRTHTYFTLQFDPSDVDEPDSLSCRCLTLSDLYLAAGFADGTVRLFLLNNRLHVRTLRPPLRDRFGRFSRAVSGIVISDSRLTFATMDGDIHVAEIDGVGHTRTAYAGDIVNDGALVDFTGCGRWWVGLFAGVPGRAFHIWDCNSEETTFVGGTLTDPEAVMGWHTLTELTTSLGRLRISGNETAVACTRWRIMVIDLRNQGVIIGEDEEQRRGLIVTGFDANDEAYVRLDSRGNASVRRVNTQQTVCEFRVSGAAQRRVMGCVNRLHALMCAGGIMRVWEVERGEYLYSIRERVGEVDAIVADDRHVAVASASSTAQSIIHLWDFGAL
Kind of test: pull-down; His-KIX8/9 incubated with GST-SAP or GST-GUS, pulled down by glutathione sepharose, immunoblot with anti-His. Background: Immunoblotting shows a protein as a band on a membrane.

Test [2] deals with T2, STERILE APETALA (SAP), bait construct pGBKT7-SAP (Arabidopsis thaliana) (UniProt Q9FKH1).
T2 sequence: T1 sequence
As to the kind of experiment: two-hybrid; library screen with the bait pGBKT7-SAP, Matchmaker Gold Yeast Two-Hybrid system (Clontech).

Test [3] deals with T3, GFP-SAP (Arabidopsis thaliana) (UniProt Q9FKH1).
T3 sequence: T1 sequence
As to the kind of experiment: co-IP; GFP-Trap-A beads with total protein extracts of transgenic Arabidopsis; seedlings pre-treated with MG132; immunoblot with anti-Myc and anti-GFP.

Test [4] concerns the target T4, SAP-nLUC (Arabidopsis thaliana) (UniProt Q9FKH1).
T4 sequence: T1 sequence
As to the kind of experiment: split reporter; split luciferase complementation; SAP-nLUC and cLUC-KIX8/9 co-expressed in N. benthamiana leaves, luminescence 24 hours after infiltration.

Turning to His-KIX8 (Arabidopsis thaliana), the binding entry in test [1] is “binds”.
As to His-KIX9 (Arabidopsis thaliana), the binding result in test [1] is given as “binds”.
With “KIX9, prey found in the yeast two-hybrid screen (Arabidopsis thaliana)”, the binding entry in test [2] was “binds”.
In the case of Myc-KIX8 (Arabidopsis thaliana), the binding entry in test [3] is reported as “binds”.
On to Myc-KIX9 (Arabidopsis thaliana), for which the binding result in test [3] is “binds”.
As for cLUC-KIX8 (Arabidopsis thaliana), the binding result in test [4] is recorded as “binds”.
As for cLUC-KIX9 (Arabidopsis thaliana), the binding entry in test [4] is given as “binds”.
